# Screening data, single-dose tests

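Cell assay of Leishmania donovani living inside macrophages; the read-out is not stated. Compounds at 30 µM. The record gives no direction; compounds that gave an IC50 in retests scored well above the rest, so higher reads as stronger inhibition. About 69,000 compounds were tested under these conditions; 1.5% (about 1,000) showed 50% or more at least once.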

The filed quantity is “Percent Effect” (%).
How 0% and 100% were set is not recorded. Most values in the screen are low, and negative values occur.
Compounds were drawn at random from those tested, without regard to their results.

| structure | Percent Effect |
|---|---|
| `OC1(CN2CCCCC2)CCN(Cc2c[nH]c(CC3CCCC3)n2)C1` (centres unmarked) | 3.904 |
| `NC(=O)c1cc(C2CCCN(CCCOc3ccccc3)C2)n[nH]1` (centres unmarked) | 20.87 |
| `CCN(CC)Cc1nnc2sc(C(C)Oc3ccccc3)nn12` (centres unmarked) | 29.69 |
| `O=C(Cn1nc(C(F)(F)F)c(Cl)c1C1CC1)NN1CCOCC1` | -16.69 |
| `Cc1cccc(CC(=O)NCCCOC(C)C)c1` | -17.71 |
| `CC(NC(=O)c1cn(CCC2CCCCC2)nn1)c1cnn(C)c1` (centres unmarked) | -9.12 |
| `CN(CCC(=O)NC1CC1)Cc1ccc(Cl)s1` | 19.97 |
| `CN1CC(C(=O)NCc2cccnc2-n2cccn2)CC1=O` (centres unmarked) | 13.19 |
| `N#CCSCCCN1CCCC(C(=O)N2CCCCCC2)C1` (centres unmarked) | -3.899 |
| `COc1ccc2c(c1)nc1n2[C@@H](CNC(=O)c2cccnc2)COC1` | 16.21 |
| `Cc1nc(C)c(CN2CCOC[C@H](Oc3ccccc3)C2)s1` | -0.9736 |
| `CCOc1cccc(CNC(=O)CN2CCC3(CCOC3)C2)c1` (centres unmarked) | 4.101 |
| `CC(C)C(=O)NCC(=O)N(C)C1CCCN(CCc2ccccc2)C1` (centres unmarked) | 12.3 |
| `COC(=O)c1cccc(NCC(=O)NC(N)=O)c1` | -25.65 |
| `CCN1CCN(C(=O)NC(C)c2noc(-c3ccccc3)n2)CC1` (centres unmarked) | 17.72 |
| `COc1cccc2c1OCC(NCCCOc1cccnc1)C2` (centres unmarked) | 0.7744 |
| `Cc1cnn(CC2CN(Cc3nc(-c4cccnc4)no3)CCO2)c1` (centres unmarked) | 21.94 |
| `Cc1cnn(CC(=O)NCC2CCN(c3cc(Cl)ccc3C)C2)c1` (centres unmarked) | -7.953 |
| `COc1c(CNC2CCOc3c(Cl)cccc32)c(C)nn1C.Cl` (centres unmarked) | 30.91 |
| `CC(Nc1ccn(Cc2ccccn2)n1)C(=O)NC(C)(C)C` (centres unmarked) | 5.32 |
| `CCN(CC)C(=O)CSc1nc2cc(C)nc-2c(O)n1CC` | -1.565 |
| `CC(C)N1CCC2(CC1)C[C@@H](O)[C@H](c1ccccc1)NC2=O` | 7.395 |
| `CC(C)CC(=O)NCCn1nc(C2CCNC2)c2cccnc21.Cl` (centres unmarked) | 7.971 |
| `[H][C@]12CN(c3cnn(C)c3)C(=O)[C@@]1([H])CN(S(=O)(=O)CC)C2` | 17.98 |
| `CCn1nc(C)c(CNC(=O)c2nnc3ccccc3n2)c1C` | 26.09 |
| `CCCc1cncnc1N1CCC(NCc2ccncc2)CC1` | -13.54 |
| `CN(C)c1ccc(CC(=O)N2CCOCC(O)C2)cc1` (centres unmarked) | -29.65 |
| `O=C(O)C(F)(F)F.O=C1CC2(CCN(CC3CCOC3)CC2)c2ccccc2N1CC1CC1` (centres unmarked) | 8.748 |
| `CN(CCn1ccc2ccccc21)C(=O)Cc1n[nH]c(=O)[nH]1` | 30.07 |
| `CC(=O)NCC(=O)N1CCN(CC2CC2)c2ncccc2C1` | 22.79 |
| `COc1ccc(C2CCCN2c2cnc3ccccc3n2)c(OC)c1` (centres unmarked) | 4.664 |
| `Cc1ccccc1CN1CCCN(C(=O)c2ccn(C)c(=O)c2)CC1` | 1.833 |
| `CCOCc1cccc(S(=O)(=O)N2CCSCC2)c1` | 10.29 |
| `COc1ccc2c(c1)C(=O)NC1(CC2)CCN(Cc2ccccn2)C1` (centres unmarked) | 27.11 |
| `CN(C)c1nc(N)nc(CN2CCC(c3ccccc3)CC2)n1` | 30.78 |
| `O=C(O)C(F)(F)F.O=C(O)C(F)(F)F.[H][C@@]12CCN(Cc3ccccn3)[C@]1([H])CC[C@@H](c1nnc(C)o1)O2` | 13.34 |
| `[H][C@@]12CCN(Cc3nc(C)cs3)C[C@]1([H])OCCN(c1cccnc1)C2=O` | -11.28 |
| `Cc1cccc(NC(=O)C(C)Nc2cccc(CN3CCOC3=O)c2)c1` (centres unmarked) | 13.35 |
| `[H][C@]12CC[C@]([H])(CN(Cc3cccnc3)C1)N(C(=O)CSc1ccncc1)C2` | 35.98 |
| `CC(=O)NCC(=O)N1Cc2cc(C#N)ccc2C1c1cnco1` (centres unmarked) | -1.012 |
| `Cc1ccc(C(C)NCCc2nccn2Cc2ccccc2)o1` (centres unmarked) | 19.94 |
| `Cc1c(Br)cnn1CCC(=O)N(C)Cc1c(Cl)cnn1C` | -29.33 |
| `CN(Cc1nc2ccccc2o1)C1CCCN(c2cccnn2)C1` (centres unmarked) | 3.56 |
| `O=C(O)C(F)(F)F.[H][C@]12CN(c3ncccn3)C[C@@]1(C(=O)N(C)C)CCCN(S(=O)(=O)CC)C2` | 13.64 |
| `CC(CCNC(=O)N1CCC1)N(C)C(=O)OC(C)(C)C` (centres unmarked) | 11.01 |
| `O=C(Nc1ccc(F)cc1)C1CNCCN1C(=O)CCc1cccnc1` (centres unmarked) | 21.52 |
| `O=C(O)CCc1ccc(S(=O)(=O)Nc2cnn(CC(F)(F)F)c2)cc1` | -28.89 |
| `Cc1nn(CCC(=O)N2CCCC(OCc3cccnc3)C2)c(C)c1C` (centres unmarked) | 3.476 |
| `O=C(CCn1cncn1)N1CCCC(CO)(CCCc2ccccc2)C1` (centres unmarked) | -0.6256 |
| `CCc1nc(C2CCCN(C(=O)C(C)(C)NS(C)(=O)=O)C2)no1` (centres unmarked) | 6.191 |
| `FC(F)(F)CN1CCC(CCNc2ncccn2)CC1` | 13.95 |
| `CCN(CCc1nc2cc(C)ccc2[nH]1)C(=O)COC` | 0.7492 |
| `Cc1ccc(N(CCC#N)C(=O)CCc2cscn2)cc1C` | -20.92 |
| `O=c1[nH]nc(CNc2cncc(Br)c2)[nH]1` | -2.58 |
| `Cc1nc(C2CCN(S(C)(=O)=O)CC2)nc(N2CCCC2)c1C` | 5.019 |
| `Cc1cnc(C(=O)N(CCN(C)C)Cc2ccc(Cl)cc2)cn1` | 14.33 |
| `Cc1cnc(NS(=O)(=O)c2cccc(C#N)c2)s1` | -24.4 |
| `O=C1CC(c2ccncc2)C2(CCN(C(=O)c3ccnnc3)CC2)N1` (centres unmarked) | -6.442 |
| `COCc1cnc2n1CCN(C(=O)c1cnc3ccccc3c1)C2C` (centres unmarked) | 16.04 |
| `CCc1ncc(CN2CCN(c3cc(NC4CC4)nc(N)n3)CC2)cn1` | -9.71 |
| `CCOc1ccc(CC(CNC(=O)c2sccc2C)C(N)=O)cc1` (centres unmarked) | -3.527 |
| `Cc1nc(C2CCCN(C(=O)c3csc(C)n3)C2)no1` (centres unmarked) | 24.92 |
| `Cc1cc2n(n1)CC(CNCc1ccnc(-n3ccnc3C)c1)CN2` (centres unmarked) | 26.33 |
| `COCCn1nc(C(=O)N2CCCC2c2cccc(F)c2)ccc1=O` (centres unmarked) | 3.062 |
| `[H][C@@]12CS(=O)(=O)C[C@]1([H])N(C(=O)CN(C)CC)CCN2Cc1ccccc1` | 4.804 |
| `CC1CCC(NCCCN2CCOCC2)CC1` (centres unmarked) | 41.59 |
| `O=C(NCc1cn2c(n1)SCC2)c1cn(CCN2CCCCC2)nn1` | 12.07 |
| `CCc1noc(CN2CCN(CC(O)c3ccccc3)CC2)n1` (centres unmarked) | 2.435 |
| `O=C(O)[C@@H]1CN(C(=O)CCc2ccccn2)C[C@H]1c1ccccc1` | 5.304 |
| `O=C(O)C(F)(F)F.[H][C@@]12CCN(c3cnccn3)C[C@]1([H])CN(C(=O)CC1CC1)C2` | 13.78 |

The first 6 entries again:

structure,Percent Effect
OC1(CN2CCCCC2)CCN(Cc2c[nH]c(CC3CCCC3)n2)C1 (centres unmarked),3.904
NC(=O)c1cc(C2CCCN(CCCOc3ccccc3)C2)n[nH]1 (centres unmarked),20.87
CCN(CC)Cc1nnc2sc(C(C)Oc3ccccc3)nn12 (centres unmarked),29.69
O=C(Cn1nc(C(F)(F)F)c(Cl)c1C1CC1)NN1CCOCC1,-16.69
Cc1cccc(CC(=O)NCCCOC(C)C)c1,-17.71
CC(NC(=O)c1cn(CCC2CCCCC2)nn1)c1cnn(C)c1 (centres unmarked),-9.12

The values are deposited in ChEMBL (CHEMBL3988442, “University of Dundee, Small-Polar-MMV Screening Library” (2021)).